System: ALDH+ cells
Test: RNA sequencing of flow-sorted ALDH+ vs ALDH- islet cells (wild-type and Foxo knockout)
Parameters: species or system mouse
[1] = wild-type ALDH− vs. ALDH+ cells (ALDH+/ALDH−)

Tbca
baseMean ALDH+ (RNA sequencing, wild-type ALDH+ cells): 462.7 | baseMean all (RNA sequencing, wild-type ALDH− and ALDH+ cells, mean of all samples): 825.4 | baseMean ALDH− (RNA sequencing, wild-type ALDH− cells): 1007 | Fold-Change [1]: 0.4596 | log2 Fold-Change [1]: −1.122

— patent US10732173B2, “Use of aldehyde dehydrogenase as biomarker for beta-cell dysfunction and loss” (THE TRUSTEES OF COLUMBIA UNIVERSITY IN THE CITY OF NEW YORK, priority 2015, dated 2020)
